Test results as given in patent US20160367587.
Construct, isoform or probe ends are uncertain for at least one entry. The comparison behind a weaker result is the experiment's own reference, which may not be listed here.

System: DNase
Test: enzyme reaction in vitro
Details: HES loop diminishes nuclease sensitivity; real-time digestion at 37 C; no value given; purified native protein; single-stranded DNA

## CCCGGCGATATCATCATCCATAAC [HES beta-actin oligonucleotide]
  activity on this sequence: less active
